Assay results reported in publication PMC3260238.

Amino acid sequences for entries named in this document (tags omitted). A change or cut given only in a name is not applied to a line headed by its entry.
UniProt P54132: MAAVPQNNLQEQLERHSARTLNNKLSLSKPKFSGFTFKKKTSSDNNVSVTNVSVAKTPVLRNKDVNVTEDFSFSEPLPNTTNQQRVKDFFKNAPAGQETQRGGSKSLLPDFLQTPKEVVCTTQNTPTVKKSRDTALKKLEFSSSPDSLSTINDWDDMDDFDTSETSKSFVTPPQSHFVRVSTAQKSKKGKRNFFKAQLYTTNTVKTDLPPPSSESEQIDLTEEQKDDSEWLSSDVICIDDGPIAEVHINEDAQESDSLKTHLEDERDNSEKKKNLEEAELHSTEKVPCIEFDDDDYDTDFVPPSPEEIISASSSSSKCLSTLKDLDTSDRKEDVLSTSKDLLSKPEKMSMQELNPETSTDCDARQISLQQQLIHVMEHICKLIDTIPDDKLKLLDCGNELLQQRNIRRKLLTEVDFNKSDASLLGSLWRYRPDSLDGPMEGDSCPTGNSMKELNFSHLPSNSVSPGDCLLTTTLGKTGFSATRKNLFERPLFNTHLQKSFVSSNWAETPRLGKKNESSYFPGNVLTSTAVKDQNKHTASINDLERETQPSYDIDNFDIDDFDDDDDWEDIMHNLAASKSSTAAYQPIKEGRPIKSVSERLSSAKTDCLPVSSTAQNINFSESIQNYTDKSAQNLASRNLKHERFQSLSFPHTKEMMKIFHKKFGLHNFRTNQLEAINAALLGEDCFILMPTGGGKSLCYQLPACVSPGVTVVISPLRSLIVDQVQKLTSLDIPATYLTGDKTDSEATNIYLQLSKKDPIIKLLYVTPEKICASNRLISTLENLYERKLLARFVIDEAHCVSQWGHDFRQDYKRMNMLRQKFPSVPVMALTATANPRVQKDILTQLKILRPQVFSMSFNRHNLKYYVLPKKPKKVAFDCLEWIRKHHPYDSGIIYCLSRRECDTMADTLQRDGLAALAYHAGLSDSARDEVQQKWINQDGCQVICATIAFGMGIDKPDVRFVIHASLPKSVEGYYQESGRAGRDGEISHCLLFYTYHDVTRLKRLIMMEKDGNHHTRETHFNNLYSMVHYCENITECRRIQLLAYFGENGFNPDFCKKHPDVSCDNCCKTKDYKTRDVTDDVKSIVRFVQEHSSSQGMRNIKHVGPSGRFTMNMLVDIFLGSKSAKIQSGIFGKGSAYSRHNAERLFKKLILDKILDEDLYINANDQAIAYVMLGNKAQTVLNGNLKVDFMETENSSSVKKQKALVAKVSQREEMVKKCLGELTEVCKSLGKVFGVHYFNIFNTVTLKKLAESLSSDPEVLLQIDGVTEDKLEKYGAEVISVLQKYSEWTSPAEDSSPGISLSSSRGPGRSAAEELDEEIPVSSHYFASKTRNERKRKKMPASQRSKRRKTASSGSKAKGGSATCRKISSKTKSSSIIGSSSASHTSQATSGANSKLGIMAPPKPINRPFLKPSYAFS
UniProt Q14191, whole entry: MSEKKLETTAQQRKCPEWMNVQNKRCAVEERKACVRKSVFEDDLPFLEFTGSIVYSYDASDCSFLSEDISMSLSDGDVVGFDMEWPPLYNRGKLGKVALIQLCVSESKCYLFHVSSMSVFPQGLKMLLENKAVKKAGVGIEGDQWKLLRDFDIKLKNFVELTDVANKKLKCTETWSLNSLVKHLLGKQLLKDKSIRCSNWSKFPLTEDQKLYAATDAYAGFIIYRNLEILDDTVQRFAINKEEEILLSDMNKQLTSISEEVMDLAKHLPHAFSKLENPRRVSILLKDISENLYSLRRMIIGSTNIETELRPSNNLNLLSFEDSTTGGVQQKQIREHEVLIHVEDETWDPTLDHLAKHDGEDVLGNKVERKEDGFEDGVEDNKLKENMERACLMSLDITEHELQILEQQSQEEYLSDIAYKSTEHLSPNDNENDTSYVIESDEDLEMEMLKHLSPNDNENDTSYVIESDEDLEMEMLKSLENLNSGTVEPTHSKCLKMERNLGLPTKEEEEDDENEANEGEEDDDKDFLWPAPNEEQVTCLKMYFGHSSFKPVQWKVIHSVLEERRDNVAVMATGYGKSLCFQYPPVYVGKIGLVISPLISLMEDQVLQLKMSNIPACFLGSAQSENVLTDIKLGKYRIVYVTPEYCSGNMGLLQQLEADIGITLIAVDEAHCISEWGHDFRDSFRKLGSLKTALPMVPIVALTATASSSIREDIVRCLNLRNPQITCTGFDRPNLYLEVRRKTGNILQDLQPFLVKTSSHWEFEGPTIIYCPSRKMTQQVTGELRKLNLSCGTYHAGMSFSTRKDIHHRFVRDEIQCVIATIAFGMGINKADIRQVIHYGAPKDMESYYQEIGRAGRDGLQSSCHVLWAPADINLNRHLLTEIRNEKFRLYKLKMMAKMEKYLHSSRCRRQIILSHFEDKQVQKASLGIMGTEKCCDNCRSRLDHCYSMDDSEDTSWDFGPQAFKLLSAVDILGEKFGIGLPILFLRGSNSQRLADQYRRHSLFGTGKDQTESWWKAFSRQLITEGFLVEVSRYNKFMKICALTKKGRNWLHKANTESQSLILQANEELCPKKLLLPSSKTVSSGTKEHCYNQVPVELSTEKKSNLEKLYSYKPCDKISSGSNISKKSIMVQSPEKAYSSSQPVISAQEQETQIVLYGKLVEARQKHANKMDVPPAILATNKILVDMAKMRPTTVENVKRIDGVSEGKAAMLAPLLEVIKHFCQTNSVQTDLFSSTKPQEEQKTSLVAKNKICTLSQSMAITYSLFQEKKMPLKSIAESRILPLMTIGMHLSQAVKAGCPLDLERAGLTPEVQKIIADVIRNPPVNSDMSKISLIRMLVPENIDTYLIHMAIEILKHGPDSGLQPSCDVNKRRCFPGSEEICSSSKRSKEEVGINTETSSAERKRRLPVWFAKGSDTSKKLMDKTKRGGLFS

Key:
Experiment in all cases: EMSA
BLM = BLM (UniProt P54132); details: ATPgS, marginal, EMSA: 40 mM Tris-HCl pH 8.0, 4 mM MgCl2, 5 mM DTT, 1 mM ATPgS, 0.1 ug BSA in 10 ul, 4 C, 20 min, +10 mM KCl for quadruplexes, 4% gel, 0.5x Tris-glycine pH 8.3, recombinant protein, residues 1-1417, protein details: C-terminal FLAG
[1] = molecular target: WRN exonuclease-minus (human) (UniProt Q14191); details: similar to wild type; EMSA: 40 mM Tris-HCl pH 8.0, 4 mM MgCl2, 5 mM DTT, 1 mM ATPgS, 0.1 ug BSA in 10 ul, 4 C, 20 min; +10 mM KCl for quadruplexes; 4% gel, 0.5x Tris-glycine pH 8.3; recombinant protein; label: 5'-32P; folded or branched DNA
WRN (human) = WRN (human) (UniProt Q14191); details: ATPgS, EMSA: 40 mM Tris-HCl pH 8.0, 4 mM MgCl2, 5 mM DTT, 1 mM ATPgS, 0.1 ug BSA in 10 ul, 4 C, 20 min, +10 mM KCl for quadruplexes, 4% gel, 0.5x Tris-glycine pH 8.3, recombinant protein, residues 1-1432, protein details: His6, label: 5'-32P

CGCGCCGAATTCCCGCTAGCAATATTCTGCAGCCAAGCTTCCGCGC / GGCGAACTGCCATTCGCACTTACACTGCTAGCGGGAATTCGGCGCG [Splayed arm DNA]
binding result (BLM; no significant complex with excess DNA, label: 5'-32P on strand …): binds more weakly

GCGCGGAAGCTTGGCTGCAGAATATTGCTAGCGGGAATTCGGCGCG / CGCGCCGAATTCCCGCTAGTGGCGCCTTGCAGCCAAGCTTCCGCGC [Bubble DNA]
binding result (BLM; Kd not determinable, label: 5'-32P on strand …): binds more weakly

GGTTAGGGTTAGGGTTAGGGTTAGGGTTAGTTAGGGTTAGGGT [G'2 TeR43 quadruplex]
binding result (BLM; 10 mM KCl, no significant complex with excess DNA, label: 5'-32P, folded or branched DNA): binds more weakly | binding result [1]: binds

GGTTAGGGTTAGGGTTAGGGTTAGGGTTAGTTAGGGTTAGGGT [G'4 TeR43 quadruplex]
binding result (BLM; 10 mM KCl, label: 5'-32P, folded or branched DNA): binds more weakly | binding signal (DNA:WRN stoichiometry at saturation) (WRN (human); 10 mM KCl, folded or branched DNA): 0.05

GGTTAGGGTTAGGGTTAGGGTTAGGGTTAGTTAGGGTTAGGGT [single-stranded TeR43]
binding result (BLM; label: 5'-32P, single-stranded DNA): binds more weakly | binding signal (DNA:WRN stoichiometry at saturation) (WRN (human); single-stranded DNA): 0.05

For some assays here: Weaker means in comparison with the reference protein, sequence or condition of that experiment. For some assays here: Construct, isoform or probe ends are uncertain for at least one entry. For some assays here: The direction of at least one scale is not stated here.
